Reference: PubChem BioAssay AID1508600 (Functional Genomics Laboratory (NCATS/FGL), 2020)
The whole screen tested about 53,000 sequences, of which about 3,700 (7%) were called active.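 The calls were made as follows: active = gene knockdowns whose robust z-score for IL-1 alpha signal is at least 2 or at most -2, so actives lie on both sides; inactive = the rest.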 This is one part of the list.

assay: Components of the Cytosolic LPS Sensing Pathway: Gene Identification via Genome-wide siRNA Screen; conditions: RAW264.7 macrophages, IL-1a HTRF, actives lie on both sides, screened at 100 nM (by protocol), cells primed 5 h with Pam3CSK4 first;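 also: robust z of the log signal after scaling to non-targeting control siRNA wells of the plate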
In short: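 Mouse macrophage line RAW264.7 is transfected with siRNA (100 nM final), grown 48h, primed with TLR ligand Pam3CSK4 5 h and given intracellular LipidA 24 h. IL-1a in supernatant is read by HTRF and viability by luminescence.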

Row | Sequence | z-score
1 | GGAGGAGUUCUGCAUCUACTT against Syngr1 | inactive: -1.04
2 | GGUAUUCUAUAAGCUCCUUTT against Dennd1a | active: -2.07
3 | GGAGAAGAAAAAUCUCUCCTT against Ccdc28a | inactive: 0.578
4 | GCGUAGACAAAAAACUAUCTT against F13b | inactive: 1.02
5 | GGAACUUUGUGAAGGAAGCTT against Cog8 | inactive: 0.372
6 | CCUUACGUAACUGAACAAATT against Tra2a | inactive: 0.0768
7 | CCUGUGUCUAUAUUCUUAGTT against Tep1 | inactive: -0.411
8 | CCAGUAAACCGAGACCAUUTT against Nsfl1c | active: 2.02
9 | GGUAUAUGUCACCAUACUCTT against Phxr2 | inactive: -1.99
10 | CGCAGUGCACAUCAAGGGATT against Lfng | inactive: 0.829
11 | GGAAGUGAUGCAUAAAUACTT against Ppef2 | inactive: -1.26
12 | CGGAAUCAUUCGGAAUGAGTT against Capza3 | inactive: -1.01
13 | GGAUCAUCAAGAUAUAGAUTT against Trpm7 | active: 2.44
14 | GGGCUUUAUUCAUCCACUCTT against 1700067P10Rik | inactive: 1.52
15 | GCAUAGAUUGAUGGCUAAUTT against Chd8 | inactive: 1.18
16 | GAAACUACACCUCAGAGUGTT against Trrap | inactive: -1.36
17 | GGCUGUUUGCGUGAUAGACTT against Lrwd1 | inactive: -1.51
18 | CGGAUUCAUCAGUUUGGUATT against Cdc7 | inactive: 0.274
19 | GGAAAAGAAAGACUUUUGCTT against Fcho2 | inactive: 0.102
20 | CCAGUUGUCUAGACCUGCATT against Ptbp1 | inactive: -0.301
21 | CGAAUACUGGACCAUGAUUTT against S100a16 | inactive: -0.35
22 | GGAGAUAUCACACAAAUCCTT against Gabrg1 | inactive: -0.32

Row | Sequence | z-score
23 | GGGAAGAUCUUCAGGAAAATT against Cbr3 | inactive: 1.1
24 | CCUUCAUCCAAGGACGAUGTT against Olfr781 | inactive: -0.786
25 | GGUAAAGAGACACAAGGUGTT against Gjb1 | inactive: 1.04
26 | GGCAUCUUUUGGGCAGCAGTT against Scrg1 | inactive: -0.429
27 | GGAUAAUUCAGACAACAAUTT against Fus | inactive: -0.236
28 | GGGACAAUACCAAUUUCUCTT against Car15 | inactive: -0.209
29 | GGUAUCAUAUGAUAAAGCATT against Npy5r | inactive: -0.978
30 | GGACAGAGGCCACAGAGAATT against Hrc | inactive: -1.45
31 | GGAGGAUGAGCAAGACAACTT against Lbh | inactive: -0.406
32 | CGAUGACGGGAAAUAAUUUTT against Snx4 | inactive: -0.663
33 | GGCCAGUUGCUCAAAUUAUTT against Olfr460 | inactive: 0.094
34 | GCCCUUUGACAAUUUGUUUTT against Stra6l | inactive: -0.661
35 | GCGUGUUCGCUUCUUGCUATT against Trub2 | inactive: -0.614
36 | GGAUGCUAGACUAAUACUATT against Slc25a32 | inactive: 1.3
37 | GGAUGUUAACAUUGAGCAATT against Asb11 | inactive: -0.0828
38 | GCCACUGGUUCCAAUCGUCTT against Ncs1 | inactive: -0.354
39 | GCAACCUCUUCAGCUUACATT against Fjx1 | inactive: 0.195
40 | CCAUACCCACUUACUGAAGTT against Galntl6 | inactive: -0.474
41 | GGAAGACUUGAAUUCUCUGTT against Tex101 | inactive: -1.95
42 | CGAUAUGAAGCGAAAUAUCTT against Pmpca | inactive: 0.528
43 | GGCAAAGCAACAAUAUCUATT against Cct7 | inactive: -0.809
44 | GGACAAUGUGGUGCUGUCCTT against Slc34a3 | inactive: 0.492

Taken from the listing (30 entries):
Row | Sequence | z-score
14 | GGGCUUUAUUCAUCCACUCTT against 1700067P10Rik | inactive: 1.52
15 | GCAUAGAUUGAUGGCUAAUTT against Chd8 | inactive: 1.18
16 | GAAACUACACCUCAGAGUGTT against Trrap | inactive: -1.36
17 | GGCUGUUUGCGUGAUAGACTT against Lrwd1 | inactive: -1.51
18 | CGGAUUCAUCAGUUUGGUATT against Cdc7 | inactive: 0.274
19 | GGAAAAGAAAGACUUUUGCTT against Fcho2 | inactive: 0.102
20 | CCAGUUGUCUAGACCUGCATT against Ptbp1 | inactive: -0.301
21 | CGAAUACUGGACCAUGAUUTT against S100a16 | inactive: -0.35
22 | GGAGAUAUCACACAAAUCCTT against Gabrg1 | inactive: -0.32
23 | GGGAAGAUCUUCAGGAAAATT against Cbr3 | inactive: 1.1
24 | CCUUCAUCCAAGGACGAUGTT against Olfr781 | inactive: -0.786
25 | GGUAAAGAGACACAAGGUGTT against Gjb1 | inactive: 1.04
26 | GGCAUCUUUUGGGCAGCAGTT against Scrg1 | inactive: -0.429
27 | GGAUAAUUCAGACAACAAUTT against Fus | inactive: -0.236
28 | GGGACAAUACCAAUUUCUCTT against Car15 | inactive: -0.209
29 | GGUAUCAUAUGAUAAAGCATT against Npy5r | inactive: -0.978
30 | GGACAGAGGCCACAGAGAATT against Hrc | inactive: -1.45
31 | GGAGGAUGAGCAAGACAACTT against Lbh | inactive: -0.406
32 | CGAUGACGGGAAAUAAUUUTT against Snx4 | inactive: -0.663
33 | GGCCAGUUGCUCAAAUUAUTT against Olfr460 | inactive: 0.094
34 | GCCCUUUGACAAUUUGUUUTT against Stra6l | inactive: -0.661
35 | GCGUGUUCGCUUCUUGCUATT against Trub2 | inactive: -0.614
36 | GGAUGCUAGACUAAUACUATT against Slc25a32 | inactive: 1.3
37 | GGAUGUUAACAUUGAGCAATT against Asb11 | inactive: -0.0828
38 | GCCACUGGUUCCAAUCGUCTT against Ncs1 | inactive: -0.354
39 | GCAACCUCUUCAGCUUACATT against Fjx1 | inactive: 0.195
40 | CCAUACCCACUUACUGAAGTT against Galntl6 | inactive: -0.474
41 | GGAAGACUUGAAUUCUCUGTT against Tex101 | inactive: -1.95
42 | CGAUAUGAAGCGAAAUAUCTT against Pmpca | inactive: 0.528
43 | GGCAAAGCAACAAUAUCUATT against Cct7 | inactive: -0.809

(list continues)

Row | Sequence | z-score
45 | GGUGCAUUAUCUUGGUUCGTT against Hmga2 | active: -2.46
46 | GAUACCAAGCUAAAAGAUCTT against Ear10 | inactive: 0.0579
47 | GGACUUGAGAAAAAUGUUATT against Gatad1 | inactive: -1.21
48 | GGUAGUAGUAAGCCAUAAATT against Exoc8 | inactive: 0.736
49 | GGCAACAUUGAUCAAGUGGTT against Ecsit | inactive: 1.41
50 | GGCCUGCCGGAGAUAAAGATT against Tex43 | inactive: -0.759
51 | CCACCUUUACGAUAAUGAUTT against Larp1b | inactive: -0.879
52 | UGCAAAGGGAAUUGUGCUGTT against Rps23 | inactive: -0.154
53 | GCCGACAACACAAAAUUAUTT against Vps26b | inactive: 0.4
54 | CCUAAAUUUCCAACAGUCCTT against Tmem81 | active: 2.05
55 | GCAACAGUGCUUUAGAUUCTT against Gpr141 | inactive: -0.531
56 | CGGACACAUGAUUGUCUUCTT against Npas1 | inactive: 1.25
57 | CCAGGAUUUUCUUACACGGTT against Cyct | inactive: -0.469
58 | GGUGUCACCUUGUUACAACTT against Arrdc4 | inactive: 0.579
59 | CCAACUGUAGAUGUAUAUATT against Pmp22 | inactive: 0.654
60 | CCAGAUUUAGGUUUCUUUCTT against Chmp5 | inactive: -0.391
61 | GCCGGAUGCAGGUUAUUAUTT against Wdr33 | inactive: 1.46
62 | GGUGUCACCACUUAUGUUGTT against Cyp2b9 | inactive: -0.582
63 | GGAUUUAGAAGUGUUAAAGTT against Pdlim1 | inactive: 0.581
64 | GGAUCUGGAUACUUUUCCATT against Arhgap22 | active: -2.09
65 | CCUGCAUCAGGACUAUUGGTT against Fndc4 | inactive: -0.206
66 | GCGGAGCCAUAAUGAAUAATT against Rev3l | inactive: 0.838

Row | Sequence | z-score
67 | GGUGAAGCACUUUUGUCCCTT against Rhoc | inactive: 0.458
68 | GGAAGUGUUCCGUUUUGCUTT against Aph1a | inactive: 0.597
69 | CGUACCAUGUAAAUUCUAUTT against Impa1 | inactive: 0.843
70 | CCUCCAGUGCUUUUGUAUATT against Olfr1437 | inactive: -1.17
71 | GCUCUAUAGUGACCAAUGUTT against Gcgr | inactive: -0.072
72 | CGACAGCUACUACGUGGAUTT against Zfp366 | inactive: 1.05
73 | CCUAGGGCUUGUGGUACUATT against Olfr1323 | inactive: -0.539
74 | GGCACUUCCUCCCUCAACATT against 4833420G17Rik | inactive: -0.57
75 | CCAAGCUUGUAGCUCAAGCTT against Cct8l1 | inactive: 0.195
76 | GGAGCAAGAAAAUGUUCCATT against Akr1b7 | inactive: 0.0354
77 | CCUCUACUCAGGAAAUAAGTT against Ippk | inactive: -0.836
78 | GCAAGACCAAAAUUCGAACTT against Mat2b | inactive: 0.0853
79 | GCACCAUGAAUUCUAUUGCTT against Kcnmb1 | inactive: -0.24
80 | CGCAUGAUGUGGGUUCUGUTT against Tmem41a | inactive: 0.802
81 | GGACCAGGUUCACUUCCCUTT against Ovol1 | inactive: -1.95
82 | GGAGGCAUUCGCAUAGACGTT against Tra2a | inactive: 1.68
83 | GCUGAGUUUUGUGGUAGACTT against Olfr1310 | inactive: 0.225
84 | GGCGUACAACAAAAAGCGGTT against Zfp697 | inactive: 0.94
85 | GGCAGACAUUAAAUAUACUTT against Pax1 | inactive: -0.759
86 | GGACAGUGUUUACAAACUUTT against Fbxw7 | inactive: -0.664
87 | CCCAUAAAGGAUCUGACAGTT against Casp7 | inactive: 0.164
88 | CCACUGCACUGUAAAUCAATT against Glrx5 | inactive: -1.41

Row | Sequence | z-score
89 | CCUUCCUAGAGUAAUCAAATT against Olfr1289 | inactive: 1.41
90 | CCCGGUUAGCCUUUGAUUGTT against Lamc3 | inactive: 0.576
91 | GGCUACAAGGUUCGCUAUGTT against Fgfr1 | inactive: 0.0562
92 | GGAGAAGAGAAUCAACUGCTT against Pou2f3 | inactive: 0.0442
93 | GGACAAGUCCGAGAAGACATT against Glo1 | inactive: 1.98
94 | CCACAUCCCGAGUAUACAUTT against Tssk4 | inactive: -1.34
95 | GGCCAAGAAGAGAAAAACATT against Ccne2 | inactive: -1.54
96 | GGAUCAAACACAAUCCUAATT against Vmn1r171 | inactive: -1.13
97 | GGAAAAUGGGUCAAAUUUGTT against Nudt5 | inactive: -0.51
98 | GCAAUCCGGCGAUAAGAAUTT against BC031181 | inactive: -0.127
99 | GGCCCAACCUUGGAUCUUUTT against Nudt22 | inactive: 0.751
100 | GGCUUAGUCAACUUGAAAATT against Dmac2l | inactive: 1.3
101 | CCGUUGUUCAUAAUUGUGATT against Mvb12b | inactive: -0.317
102 | CGAUCAUCGCUCAGUAUAATT against Dlg4 | inactive: -0.252
103 | GGCAUUGACAUAGGUCAUATT against Blcap | inactive: 0.668
104 | CCAAAUCUGAAAUGUGCGGTT against Nprl3 | inactive: -0.0808
105 | GGCAAAAACAACAACAACATT against Isg20 | inactive: -1.31
106 | GGCCUCACCUUUUUCUAUUTT against Tmem121 | inactive: -0.663
107 | CCCUGUUAGUGUCUCUAUUTT against Tas2r113 | inactive: 0.179
